This is an account of results in paper PMC9918736.

The chains behind the UniProt entries cited, without tags or fusion partners. Where a name states a change or a piece, a line headed by the entry shows the natural chain unless it says otherwise. Residues count along the entry.
UniProt Q8VI56, residues 21-1725: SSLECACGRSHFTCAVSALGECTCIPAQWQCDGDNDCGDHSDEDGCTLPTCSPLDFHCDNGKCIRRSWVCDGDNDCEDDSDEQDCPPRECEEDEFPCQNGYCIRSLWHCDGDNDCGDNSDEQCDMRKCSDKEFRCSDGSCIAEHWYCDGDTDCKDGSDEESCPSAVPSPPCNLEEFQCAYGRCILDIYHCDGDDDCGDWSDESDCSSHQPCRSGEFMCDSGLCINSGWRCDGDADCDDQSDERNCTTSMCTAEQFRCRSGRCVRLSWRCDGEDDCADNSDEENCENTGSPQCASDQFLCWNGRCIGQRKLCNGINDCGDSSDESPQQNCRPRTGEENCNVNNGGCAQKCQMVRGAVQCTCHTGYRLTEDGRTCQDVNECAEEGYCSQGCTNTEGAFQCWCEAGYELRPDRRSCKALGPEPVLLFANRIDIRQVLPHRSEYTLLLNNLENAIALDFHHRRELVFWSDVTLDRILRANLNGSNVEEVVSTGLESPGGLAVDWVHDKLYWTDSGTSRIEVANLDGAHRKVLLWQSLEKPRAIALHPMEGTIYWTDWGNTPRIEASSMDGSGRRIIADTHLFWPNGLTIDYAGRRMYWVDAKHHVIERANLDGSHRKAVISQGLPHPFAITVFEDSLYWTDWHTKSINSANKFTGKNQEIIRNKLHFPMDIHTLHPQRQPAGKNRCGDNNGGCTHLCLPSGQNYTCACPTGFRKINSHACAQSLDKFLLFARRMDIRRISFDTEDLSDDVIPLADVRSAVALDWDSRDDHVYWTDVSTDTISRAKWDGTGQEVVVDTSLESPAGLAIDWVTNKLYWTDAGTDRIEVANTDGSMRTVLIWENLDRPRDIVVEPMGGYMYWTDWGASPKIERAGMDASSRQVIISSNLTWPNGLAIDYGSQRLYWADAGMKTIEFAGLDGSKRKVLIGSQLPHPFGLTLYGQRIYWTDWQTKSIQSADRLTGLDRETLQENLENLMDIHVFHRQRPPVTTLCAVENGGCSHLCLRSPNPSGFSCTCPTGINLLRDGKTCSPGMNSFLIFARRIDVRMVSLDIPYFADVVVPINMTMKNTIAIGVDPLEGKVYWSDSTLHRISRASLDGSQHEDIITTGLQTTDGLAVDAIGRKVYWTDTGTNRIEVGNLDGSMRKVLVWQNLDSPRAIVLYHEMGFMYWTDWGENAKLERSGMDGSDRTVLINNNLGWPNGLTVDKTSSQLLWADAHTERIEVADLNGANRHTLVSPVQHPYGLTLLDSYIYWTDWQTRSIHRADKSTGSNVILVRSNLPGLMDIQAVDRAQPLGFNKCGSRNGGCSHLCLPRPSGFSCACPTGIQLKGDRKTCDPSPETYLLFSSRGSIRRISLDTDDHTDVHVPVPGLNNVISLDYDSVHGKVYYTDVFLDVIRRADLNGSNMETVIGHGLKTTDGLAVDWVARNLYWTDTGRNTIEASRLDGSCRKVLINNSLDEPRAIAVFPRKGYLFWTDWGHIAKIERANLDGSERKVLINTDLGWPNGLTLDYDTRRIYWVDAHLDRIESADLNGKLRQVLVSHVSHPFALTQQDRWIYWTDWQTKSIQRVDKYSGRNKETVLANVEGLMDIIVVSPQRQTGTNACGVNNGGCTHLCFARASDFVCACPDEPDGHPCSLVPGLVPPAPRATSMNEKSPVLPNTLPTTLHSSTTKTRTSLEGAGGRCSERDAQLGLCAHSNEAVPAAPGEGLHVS

Results are given in words; binding and its absence hold for the method and conditions named. Binding seen in cells or lysates may run through a third protein. For some assays here: Binding calls can cover weak binding; strength is not graded here.

Targets include Flag-LRP4 ECD Δβ1 (UniProt Q8VI56); Flag-LRP4 ECD Δβ2 (UniProt Q8VI56); Flag-LRP4 ECD Δβ3 (UniProt Q8VI56); Flag-LRP4 ECD Δβ4 (UniProt Q8VI56); Flag-tagged ECD of LRP4 (UniProt Q8VI56).
What all share (assay): co-IP; HEK293 cells co-transfected with APP constructs and Flag-tagged LRP4 ECD constructs; lysates in modified RIPA buffer (150 mM NaCl, 2.5 mM EDTA, 50 mM Tris-HCl) incubated with anti-Flag beads 4-5 h or overnight at 4 °C; immunocomplexes probed with anti-APP antibody

“GFP-APP (amyloid precursor protein) (from UniProt P12023 18-770)”: the binding entry with Flag-LRP4 ECD Δβ1, in the assay with Flag-LRP4 ECD Δβ2, with Flag-LRP4 ECD Δβ3 and in the assay with Flag-LRP4 ECD Δβ4 was “binds” throughout.
With GFP-APP ΔE1 (from UniProt P12023), the binding result with Flag-tagged ECD of LRP4 was “no binding”.
